Source: PubChem BioAssay AID1259254 (NCATS, 2017)
Here is a random part of about 59,000 reagents tested. About 1,550 of all reagents (2.6%) were called active. 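G2 share is only a proxy for re-replication; each gene was hit by three separate siRNAs, and active genes were retested.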 Reagents against one gene are numbered here. Further read-outs or replicates are left out here. No sequences are given here. Not stated in the record: the amount of reagent.

Screen: 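Finding genes that stop cells copying their DNA twice in one cycle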 (primary screen)
Cell system: human HCT116 colorectal cancer cells
Reagents: single siRNA against human genes
Time to read-out: 3 days
Read-out: 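Imaged Hoechst DNA stain sorts each cell into a cycle phase by DNA amount; per plate, G2 fraction set to 0% for non-targeting and 100% for GMNN siRNA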
Direction: G2 robust z-score and G2 cells, % of GMNN control: higher = more G2 cells, more excess DNA replication
Rule for the call: 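Active siRNAs have a G2 robust z of 5 or more median absolute deviations over the median, which in these data means about 38% or higher of GMNN control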

ZFPL1 #1
- G2 robust z-score: -0.365
- G2 cells, % of GMNN control: 0.4
- call: inactive

ZFPL1 #2
- G2 robust z-score: -1.36
- G2 cells, % of GMNN control: -6.57
- call: inactive

ZFPL1 #3
- G2 robust z-score: 0.413
- G2 cells, % of GMNN control: 5.87
- call: inactive

FLNB #1
- G2 robust z-score: -0.712
- G2 cells, % of GMNN control: -2.04
- call: inactive

FLNB #2
- G2 robust z-score: 0.449
- G2 cells, % of GMNN control: 6.13
- call: inactive

FLNB #3
- G2 robust z-score: -0.522
- G2 cells, % of GMNN control: -0.708
- call: inactive

WSCD2 #1
- G2 robust z-score: -0.221
- G2 cells, % of GMNN control: 1.41
- call: inactive

WSCD2 #2
- G2 robust z-score: 4.92
- G2 cells, % of GMNN control: 37.6
- call: inactive

WSCD2 #3
- G2 robust z-score: -0.979
- G2 cells, % of GMNN control: -3.92
- call: inactive

EPOR #1
- G2 robust z-score: 1.29
- G2 cells, % of GMNN control: 12
- call: inactive

EPOR #2
- G2 robust z-score: 0.532
- G2 cells, % of GMNN control: 6.71
- call: inactive

EPOR #3
- G2 robust z-score: 0.324
- G2 cells, % of GMNN control: 5.25
- call: inactive

CXCL2 #1
- G2 robust z-score: 0.0873
- G2 cells, % of GMNN control: 3.58
- call: inactive

CXCL2 #2
- G2 robust z-score: -0.833
- G2 cells, % of GMNN control: -2.89
- call: inactive

CXCL2 #3
- G2 robust z-score: -0.364
- G2 cells, % of GMNN control: 0.404
- call: inactive

OR1L1 #1
- G2 robust z-score: -0.877
- G2 cells, % of GMNN control: -3.2
- call: inactive

OR1L1 #2
- G2 robust z-score: 2.85
- G2 cells, % of GMNN control: 23
- call: inactive

OR1L1 #3
- G2 robust z-score: -0.0538
- G2 cells, % of GMNN control: 2.59
- call: inactive

Taken from above.
CXCL2 #3, G2 cells, % of GMNN control: 0.404
Value of ZFPL1 #2 under “G2 robust z-score”: -1.36
Under “G2 robust z-score”, WSCD2 #1 shows -0.221
